## Screening data

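Genome-wide siRNA knockdown in TC32 Ewing sarcoma cells, comparing luciferase light from an NR0B1-promoter reporter with a CMV-promoter reporter 48 hours after transfection. Each siRNA was applied at 20 nM. A z-score of the log NR0B1-over-CMV signal, less the median of siRNAs with the same seed; more negative means a stronger specific loss of the NR0B1 reporter.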

The strongest results of the screen are mostly left out here. Sequences are the guide (antisense) strand, without overhang.

siRNA	gene	seed-corrected z-score
UCUGGUAUUAUCUUCCUAG	BTRC	0.3096
UAGGAGAUGAGGAUCAAUG	OR2B3	1.192
UUCAGUCCCACAAUACCCG	USP39	0.2287
AUAAUCUGGAGAUAUAGUC	FKBP1A	-0.7378
UUUAUUGAAGGUUUGGUCU	EFNA4	1.094
AACGUGGUCACCAUAGUGG	S100A5	-0.2794
UCCCAAAACAUCUUUAUCC	LOC285095	0.3404
AAAGGCAUGAGACAGCUGG	PLEKHF1	0.8092
AAAGUCGUAACCAUCCUCC	CSMD2	-0.4072
CACCACACGCUGAAUCUGC	EEF1DP3	0.3337
AUUAUCAUCAAGAACAUCG	KIAA1715	-0.146
UGAGCACCGAUUAAAGGCU	ZNF682	-0.1581
UUUUGAGCUCGUAGAAGCU	TFE3	-0.5305
UCUGGUACAACUUUGGACC	DNAAF5	2.075
UCAGGGAGUAGAUAAAGCU	FSD1	0.6385
UUGGAGUUAAGGGAAGAAG	PDGFB	-1.873
ACAGAUUAUACCGAGUUCC	PPP4R3B	0.3861
UUCCGUUACUUCUUGCUGC	ADRBK2	-0.05453
AAAGAUGCAAAGCGAAUAC	SUV39H2	1.808
AUAUGGACUGUAGAAACCG	TLE6	0.1762
UUUGUCAGAACCAAUGUUC	CCDC43	-1.329
AUACCUUCCACGGUGAAGC	APOBEC3C	0.02117
UACCGUAGCAGAAAGGUGC	ZNF526	0.6513
CUUCUUCACCUCGAACUUC	MAFA	-0.4406
UCACAUACAGUUUGGGAAG	RPS26P8	-0.2559
UGUUCUUCCAUCUAGCUCU	SRSF3	0.3678
AAAGGUUCGUCAACUAUGC	NPAS2	-1.054
AAAGCUAAGACUAAACUCG	LINC00997	0.9766
AAUAGUAUGACUGUUUGCC	MRPS9	-1.024
UACAUCUAAGAUUAGAUCC	POLR2H	-1.193
UACCAGUUGUCAUCAUAGC	PVRL2	-1.877
AAGGGUACCUGCAUGCUCU	CCL1	-0.3317
UAAGAUUUUGCUAAUGUUG	SOX6	0.9081
AUAGGUGUAACUACGUCAC	KIAA0319L	-1.029
UACACGAUACUUUUCUUUU	CDX4	0.1673
UUAUAGGACAGUGGGAUAC	SORL1	0.7841
UCCAUGAUGAGCUUAAUAC	JAK1	1.917
UACAGACCAGACAUUCUCG	FHL3	-0.1748
UAUCCUUCAUCUGUGCUCC	SPG20-AS1	0.9721
UUCGUGUUCCUCAAGCUUC	GOLGB1	-0.05118
UUCUCAACAAUGUAUUUUC	FTCDNL1	0.9094
UCCAGUUCCAGUUAAAACC	HIF1AN	0.1114
UAACGAGCAAGCUCCUCCU	SCGB2B2	0.007389
UUUCCUCUGAAGUAGUCGG	RPS24	1.476
UUGAGUCAUAUGAAGGUAG	CNBD1	-0.05176
UGAGGAAUAAGCCGUGGGC	PUSL1	-0.3584
AGAUCUAUUAAACAGCUCC	MAP1LC3BP1	-1.119
UAUCCAGUCAACAUAGUUC	C1S	-0.1183
UCCGUUUACCUUAGAAACC	JARID2	0.1262

Some entries from above, unchanged:

* UUCUCAACAAUGUAUUUUC against FTCDNL1 : seed-corrected z-score 0.9094
* UCUGGUACAACUUUGGACC against DNAAF5 : seed-corrected z-score 2.075
* UUUUGAGCUCGUAGAAGCU against TFE3 : seed-corrected z-score -0.5305
* UGAGCACCGAUUAAAGGCU against ZNF682 : seed-corrected z-score -0.1581
* AAUAGUAUGACUGUUUGCC against MRPS9 : seed-corrected z-score -1.024

Source: PubChem BioAssay AID1159506 (NCATS, 2015).